Measured values: PMC5360572
These are yes or no findings as the source states them, for the method shown. Some entries that bind do so weakly or less than the wild type.

Protein sequences, listed by entry. Tags and fused reporters are not part of them. Lines headed by an entry give the natural chain unless they say otherwise; changes in a name come on top. Chains listed by the source or under a name are the forms on record and can include a tag or linker. Residues count along the entry.
UniProt Q9NZQ7, residues 19-239: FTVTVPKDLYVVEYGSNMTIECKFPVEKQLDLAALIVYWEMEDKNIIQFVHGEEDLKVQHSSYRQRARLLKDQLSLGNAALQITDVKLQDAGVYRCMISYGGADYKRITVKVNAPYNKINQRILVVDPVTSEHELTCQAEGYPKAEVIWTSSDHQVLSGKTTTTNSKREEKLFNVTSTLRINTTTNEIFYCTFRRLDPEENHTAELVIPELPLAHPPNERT
mouse PD-1 A132L mutant (soluble, monomeric) (Q02242, form named): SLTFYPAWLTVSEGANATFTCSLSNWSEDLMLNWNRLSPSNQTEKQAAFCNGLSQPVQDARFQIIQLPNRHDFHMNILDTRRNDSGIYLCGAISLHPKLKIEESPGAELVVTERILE

Molecular target: human PD-L1 as crystallised with mouse PD-1 A132L (human) (UniProt Q9NZQ7)
Assay: crystal structure; data not shown; complexes of the mouse analog of A132L PD-1 with human PD-L1 (PDB 3SBW) and mouse PD-L2 (PDB 3RNK, 3BP6); both purified

Substance: mouse PD-1 A132L mutant (soluble, monomeric) (from UniProt Q02242 34-150) (domain or fragment)
- binding: binds
